Results are given in words; binding and its absence hold for the method and conditions named. Some entries that bind do so weakly or less than the wild type. Tags and fused reporters may be left off the sequences shown.
Target: T1, GST-RBM39 (UniProt Q14498)
T1 sequence: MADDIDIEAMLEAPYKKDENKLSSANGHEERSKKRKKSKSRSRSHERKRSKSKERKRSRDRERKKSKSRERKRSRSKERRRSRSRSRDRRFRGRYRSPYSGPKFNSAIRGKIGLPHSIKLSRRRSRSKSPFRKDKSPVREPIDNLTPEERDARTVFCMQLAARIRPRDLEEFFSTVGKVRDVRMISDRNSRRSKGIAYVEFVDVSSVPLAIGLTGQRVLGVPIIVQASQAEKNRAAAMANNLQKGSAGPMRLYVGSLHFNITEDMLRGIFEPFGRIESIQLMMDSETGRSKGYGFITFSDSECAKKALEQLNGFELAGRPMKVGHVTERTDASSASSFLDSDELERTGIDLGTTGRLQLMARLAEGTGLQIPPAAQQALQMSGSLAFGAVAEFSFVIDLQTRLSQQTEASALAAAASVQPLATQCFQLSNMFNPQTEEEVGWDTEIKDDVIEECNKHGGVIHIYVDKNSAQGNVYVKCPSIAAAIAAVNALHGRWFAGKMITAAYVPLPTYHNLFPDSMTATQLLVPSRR
Test: pull-down; GST or GST-tagged protein on glutathione-sepharose beads, incubated with His-tagged protein for 4 hours at 4 °C; immunoblotting with anti-His/GST antibody; both purified

Sequences of proteins named here, by UniProt entry; tags and fusion partners are left off.
UniProt Q96LA8: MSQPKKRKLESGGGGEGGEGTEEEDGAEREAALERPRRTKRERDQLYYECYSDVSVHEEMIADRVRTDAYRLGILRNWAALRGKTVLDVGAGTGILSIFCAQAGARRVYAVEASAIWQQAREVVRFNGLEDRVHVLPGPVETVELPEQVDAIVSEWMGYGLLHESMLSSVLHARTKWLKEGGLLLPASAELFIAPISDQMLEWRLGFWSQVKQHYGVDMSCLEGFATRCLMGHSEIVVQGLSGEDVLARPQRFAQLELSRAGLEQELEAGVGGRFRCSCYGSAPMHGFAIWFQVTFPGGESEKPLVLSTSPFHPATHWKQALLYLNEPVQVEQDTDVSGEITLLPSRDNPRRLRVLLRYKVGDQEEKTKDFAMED

binding: binds
Substance: His-PRMT6 (from UniProt Q96LA8 1-375) (enzyme)

From paper PMC12142651
